# Test results from PubChem BioAssay AID2685 (National Center for Advancing Translational Sciences (NCATS), 2010).
# Some of the results follow. Further columns of the screen follow, without active or inactive calls. Compounds called inactive in the main read-out are mostly missing here. Potencies come from curve fits of mixed quality, noted in brackets.
# Test: qHTS Assay for Lipid Storage Modulators in Drosophila S3 Cells;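 as to cell number change: cells counted by Cell Tracker Red CMTPX staining in the red channel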
# Conditions: BODIPY lipid droplet fluorescence, 18-24 h; for cell number change: measured here: cell count max response, cells fed with added oleic acid
# Method in brief: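 Laser-scanning cytometry quantifies lipid droplet accumulation (500–530 nm total intensity; droplet/cell object ratio) in oleic acid-fed (400 uM added) Drosophila S3 cells treated with a concentration series. 20 uM Triacsin C defined 100% inhibition.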
# [1] = measured here: lipid fluorescence (Fed channel) AC50, cells fed with added oleic acid
# [2] = measured here: cell number channel AC50, cells fed with added oleic acid
SMILES,cell number change [%],AC50 [1],AC50 [2]
Cc1ccc(N2C(=O)CCC2(C(N)=O)c2ccccc2)cc1 (centres undefined),-20.8,"3.66 µM [falling, full curve]",–
Cn1cnnc1SCC(=O)Nc1ccccc1Sc1ccccc1,7.06,–,"0.146 µM [rising, full curve, poor fit]"
COCCNC(=S)N/N=C(\C)c1ccccc1OC,40.6,"7.31 µM [rising, partial curve]","8.2 µM [rising, partial curve]"
CCSc1nnc(NC(=O)Cc2cccc(OC)c2)s1,17.1,"6.51 µM [falling, single point]",–
CS(=O)(=O)c1cccc(S(=O)(=O)N2CCN(c3ccccn3)CC2)c1,-8.52,"4.11 µM [falling, single point]",–
Cc1ccc(/C=N/N2CCOCC2)s1,–,–,"0.116 µM [falling, single point]"
CS(=O)Cc1cc(Sc2ccccc2)nc(-c2cccnc2)n1 (centres undefined),80.6,"4.11 µM [rising, full curve, poor fit]","3.66 µM [rising, full curve]"
CCn1c(C)c(Br)c(=O)c(C(=O)OC)c1-c1ccc(Cl)cc1,-6.03,"3.26 µM [falling, single point]",–
Nn1c(SCC(=O)Nc2ccc(F)cc2F)nnc1-c1cccnc1,-15.7,"4.61 µM [falling, full curve, poor fit]",–
FC(F)C(F)(F)c1cc(-c2ccc(Cl)cc2)n[nH]1,-42.4,"23.1 µM [falling, single point]","18.4 µM [falling, single point]"
CC(C)N(C(=O)CSc1nc(COc2ccccc2)nc2ccccc12)C(C)C,-2.57,–,–
Cc1ccc(Cn2nc(C)c3cc(C(=O)OCC(N)=O)sc32)cc1,36,–,"25.9 µM [rising, single point]"
O=C1NCCN1Cc1ccccc1,-33.6,–,"2.59 µM [falling, full curve]"
Cn1c(=O)c2sccc2n2c(CCCC(=O)NCCc3ccc(S(N)(=O)=O)cc3)nnc12,-3.42,–,–
Cc1ccc(S(=O)(=O)N(Cc2ccccc2)c2ccccc2C(=O)Nc2ccccc2C(=O)NCc2ccco2)cc1,33.5,"0.231 µM [rising, full curve]","20.6 µM [rising, single point]"
CC(C)N(Cc1nc(-c2ccccc2)no1)C(=O)c1ccc2c(c1)OCO2,159,"29.1 µM [rising, single point]","29.1 µM [rising, single point]"
CN(CC(=O)Nc1ccc(Cl)c(C(F)(F)F)c1)CC(=O)NC1CCCCC1,-10.6,"6.51 µM [rising, single point]",–
COc1ccc(C(c2c(C)[nH]n(C(N)=S)c2=O)C(C#N)C#N)cc1 (centres undefined),-42.5,"23.1 µM [falling, single point]","29.1 µM [falling, single point]"
CC(C)C(NC(=O)CCNC(=O)c1ccc([N+](=O)[O-])cc1)c1nc2ccccc2[nH]1 (centres undefined),8.33,"3.26 µM [rising, single point]",–
COc1ccc(OC(C)C(=O)N2CCCc3ccccc32)cc1 (centres undefined),-29.9,–,"0.82 µM [rising, single point]"
CNc1nc(-c2c[nH]c3ccccc23)cs1,-43.1,"20.6 µM [falling, single point]","29.1 µM [falling, single point]"

SMILES,cell number change [%],AC50 [1],AC50 [2]
CONc1nc2nonc2nc1NOC,6.41,"29.1 µM [falling, single point]",–
O=C(c1cc(S(=O)(=O)N2CCCCC2)ccc1Cl)N1CCOCC1,-11.3,"2.31 µM [rising, partial curve]",–
CSC(C(=O)c1cc2ccccc2o1)c1ccccc1 (centres undefined),-21.1,"0.651 µM [falling, single point]",–
CCOC(=O)c1cnc2nc(Cc3ccccc3)[nH]n2c1=O,6.64,–,–
COc1ccc(/C=C/C(=O)OCCNC(=O)c2ccncc2)cc1OC,–,"4.11 µM [rising, single point]",–
CS(=O)(=O)N(CC(=O)NCc1ccc2c(c1)OCO2)C1CCCCC1,-10.2,"16.4 µM [falling, single point]",–
CNc1nnc(SCC(=O)c2c(N)n(C3CC3)c(=O)[nH]c2=O)s1,18,–,–
COCCn1ccc(O)c(Cc2ccccc2)c1=O,-91.4,"29.1 µM [falling, single point]","32.6 µM [falling, single point]"
Cc1c(CCC(=O)O)c(=O)oc2c(C)c(OCc3cc4c(cc3Cl)OCO4)ccc12,12.5,–,–
Cc1cccc(NC(=S)Nc2c(C)n(C)n(-c3ccccc3)c2=O)c1C,-9.89,"5.8 µM [falling, partial curve, poor fit]",–
COc1cccc(NC(=O)c2ccccc2F)c1,30,"11.6 µM [rising, partial curve]","14.6 µM [rising, single point]"
CSCc1ccc(C(=O)Nc2ccc(C(N)=O)cc2)cc1,100,–,"29.1 µM [rising, single point]"
Cc1c(O)nc(SC2CC(=O)N(c3ccccc3)C2=O)[nH]c1=O (centres undefined),3.25,"29.1 µM [rising, single point]",–
O=C(O)[C@@H]1[C@@H]2C[C@@H]2CN1c1ncccc1[N+](=O)[O-],100,–,"18.4 µM [rising, single point]"
O=C1CCCN2N=C(SCC(=O)Nc3nc4ccccc4s3)SC2=N1,6.35,"0.0058 µM [falling, full curve, poor fit]",–
O=C(NC(=O)c1ccccc1)OCC1CCCN2CCCCC12 (centres undefined),-12.4,–,–
CCCN(CC(=O)Nc1ccccc1C)C(=O)c1sc2ccccc2c1Cl,4.35,"2.91 µM [falling, partial curve, poor fit]",–
COC(=O)c1cn(C(=O)c2ccc(OC)cc2)c2ccccc12,-4.69,"1.64 µM [rising, partial curve, poor fit]",–
COc1cccc(CN(CC(=O)NCc2ccccc2)S(=O)(=O)CCl)c1,7.86,–,–
O=C(N/N=C1\CC2CC=CC12)c1ccc(Br)cc1 (centres undefined),7.09,–,–
O=C(/C=C/c1ccc2c(c1)OCO2)NCCS(=O)(=O)N1CCN(c2ccc(F)cc2)CC1,–,"0.164 µM [rising, full curve, poor fit]",–

SMILES,cell number change [%],AC50 [1],AC50 [2]
COc1cccc2cc(S(=O)(=O)c3ccccc3)c(=Nc3ccc4c(c3)OCCO4)oc12,-21.2,"0.411 µM [rising, full curve, poor fit]","0.00411 µM [rising, full curve, poor fit]"
CCc1ccccc1NC(=O)CSc1ccsc1[N+](=O)[O-],13.2,"6.51 µM [rising, single point]",–
COc1ccc(C2c3c(ccc4ccccc34)Oc3ncn4nc(Cc5ccccc5)nc4c32)cc1OC (centres undefined),–,–,"1.3 µM [rising, full curve, poor fit]"
CCCOC(=O)c1ccc(NC(=O)CCC(=O)OCC)cc1,-1.49,"0.13 µM [falling, full curve, poor fit]",–
COc1cccc(C=Nc2cc(C)on2)c1O,0.947,"25.9 µM [falling, single point]",–
Cc1ccc(CCNS(=O)(=O)c2ccc3c(c2)NC(=O)C(C)C(=O)N3)cc1 (centres undefined),21.3,"18.4 µM [rising, single point]",–
COc1ccc(/C=N/N(C)C2=NCCN2)c(OC)c1OC,7.09,"0.58 µM [falling, single point]","0.731 µM [falling, single point]"
Cc1onc(-c2ccccc2)c1CNC(=O)CN1C(=O)c2ccccc2C1=O,-24.2,"16.4 µM [falling, partial curve]",–
Cc1noc(C)c1COC(=O)[C@@H](NC(=O)c1ccccc1Cl)C(C)C,23.1,–,"0.092 µM [rising, full curve, poor fit]"
CCN(CC)S(=O)(=O)c1ccc(N)cc1,16.3,"29.1 µM [rising, single point]",–
O=c1cc(-c2ccccc2)nc(SCc2ccccc2)[nH]1,-84,"29.1 µM [falling, partial curve, poor fit]","29.1 µM [falling, partial curve, poor fit]"
CCN(CC)c1ccc(/C=C/c2cccc[n+]2C)c(OC)c1,-94.6,"1.64 µM [falling, full curve]","14.6 µM [falling, partial curve]"
CC(=O)Nc1ccc(S(=O)(=O)N2CCC(C(=O)c3ccc(Cl)cc3)CC2)cc1,10.4,–,–
O=C1CC(c2ccco2)c2ccc3ccccc3c2N1 (centres undefined),-11.1,"6.51 µM [rising, single point]",–
Cc1nc2ccccc2c(=O)n1NC(=O)/C=C/c1ccccc1Cl,8.63,"14.6 µM [rising, partial curve, poor fit]",–
CS(=O)(=O)N1CCN(C2CCN(Cc3ccccc3)CC2)CC1,-0.469,"29.1 µM [falling, single point]",–
CCCCCNCc1cccn1C,-18.4,–,–
Cc1ccc(NC(=O)CC(N)=S)cc1,11.5,"23.1 µM [falling, single point]",–
O=[N+]([O-])c1cnc(Nc2ccc(Cl)cn2)c([N+](=O)[O-])c1,-15.9,"18.4 µM [falling, single point]",–
CCOCCCNC(=O)C(NC(=O)Cc1cccs1)c1ccccc1 (centres undefined),34,"18.4 µM [rising, single point]","13 µM [rising, single point]"
